Experimental data from patent US20240156901A1, “GAL3BP POLYPEPTIDE COMPOSITIONS AND METHODS FOR TREATMENT OF CANCER AND DETERMINING TREATMENT RESPONSIVENESS” (UNIVERSITY OF PITTSBURGH-OF THE COMMONWEALTH SYSTEM OF …, priority 2021, published 2024).
No constants are given. Whether binding was seen depends on the method and setting. Binding seen in cells or lysates may run through a third protein. Some binding calls cover weakened binding; strength is not graded here.

Sequences of proteins named here, by UniProt entry; tags and fusion partners are left off. A change or cut given only in a name is not applied to a line headed by its entry.
UniProt P36222: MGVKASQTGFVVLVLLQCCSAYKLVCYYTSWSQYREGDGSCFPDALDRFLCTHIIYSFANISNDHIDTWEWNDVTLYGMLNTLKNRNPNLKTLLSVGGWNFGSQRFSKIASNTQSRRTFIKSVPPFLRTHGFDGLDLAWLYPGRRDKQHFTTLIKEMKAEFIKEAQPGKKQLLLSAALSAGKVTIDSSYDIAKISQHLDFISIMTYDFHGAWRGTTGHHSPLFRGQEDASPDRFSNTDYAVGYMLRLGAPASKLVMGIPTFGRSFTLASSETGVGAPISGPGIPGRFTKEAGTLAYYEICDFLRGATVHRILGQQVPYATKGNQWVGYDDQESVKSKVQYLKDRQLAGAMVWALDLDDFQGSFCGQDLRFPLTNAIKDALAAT

Biological target: Human CHI3L1 Recombinant Protein (R&D Systems, Cat# 2599-CH-050) (human) (UniProt P36222)
Assay: in vitro Co-IP of recombinant proteins, rGal3BP titrated against rGal3 + rCHI3L1 (FIG. 6E)

B1: recombinant Gal3BP protein (protein)
chain: VNDGDMRLADGGATNQGRVEIFYRGQWGTVCDNLWDLTDASVVCRALGFENATQALGRAAFGQGSGPIMLDEVQCTGTEASLADCKSLGWLKSNCRHERDAGVVCTNETRSTHTLDLSRELSEALGQIFDSQRGCDLSISVNVQGEDALGFCGHTVILTANLEAQALWKEPGSNVTMSVDAECVPMVRDLLRYFYSRRIDITLSSVKCFHKLASAYGARQLQGYCASLFAILLPQDPSFQMPLDLYAYAVATGDALLEKLCLQFLAWNFEALTQAEAWPSVPTDLLQLLLPRSDLAVPSELALLKAVDTWSWGERASHEEVEGLVEKIRFPMMLPEELFELQFNLSLYWSHEALFQKKTLQALEFHTVPFQLLARYKGLNLTEDTYKPRIYTSPTWSAFVTDSSWSARKSQLVYQSRRGPLVKYSSDYFQAPSDYRYYPYQSFQTPQHPSFLFQDKRVSWSLVYLPTIQSCWNYGFSCSSDELPVLGLTKSGGSDRTIAYENKALMLCEGLFVADVTDFEGWKAAIPSALDTNSSKSTSSFPCPAGHFNGFRTVIRPFYLTNSSGVD
Question: For B1, which binding is on record?
Answer: binds
